Experimental data taken from PMC7048395.
These are yes or no findings as the source states them, for the method shown. Binding seen in cells or lysates may run through a third protein. Here binding means that the protein was enriched with, or labelled near, the bait; the list need not be complete.

The chains behind the UniProt entries cited, without tags or fusion partners. Where a name states a change or a piece, a line headed by the entry shows the natural chain unless it says otherwise.
UniProt P0C0S5: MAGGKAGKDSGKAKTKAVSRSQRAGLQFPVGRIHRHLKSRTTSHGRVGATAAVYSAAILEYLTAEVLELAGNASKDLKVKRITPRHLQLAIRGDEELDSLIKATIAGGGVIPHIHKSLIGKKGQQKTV
UniProt Q7Z5J4: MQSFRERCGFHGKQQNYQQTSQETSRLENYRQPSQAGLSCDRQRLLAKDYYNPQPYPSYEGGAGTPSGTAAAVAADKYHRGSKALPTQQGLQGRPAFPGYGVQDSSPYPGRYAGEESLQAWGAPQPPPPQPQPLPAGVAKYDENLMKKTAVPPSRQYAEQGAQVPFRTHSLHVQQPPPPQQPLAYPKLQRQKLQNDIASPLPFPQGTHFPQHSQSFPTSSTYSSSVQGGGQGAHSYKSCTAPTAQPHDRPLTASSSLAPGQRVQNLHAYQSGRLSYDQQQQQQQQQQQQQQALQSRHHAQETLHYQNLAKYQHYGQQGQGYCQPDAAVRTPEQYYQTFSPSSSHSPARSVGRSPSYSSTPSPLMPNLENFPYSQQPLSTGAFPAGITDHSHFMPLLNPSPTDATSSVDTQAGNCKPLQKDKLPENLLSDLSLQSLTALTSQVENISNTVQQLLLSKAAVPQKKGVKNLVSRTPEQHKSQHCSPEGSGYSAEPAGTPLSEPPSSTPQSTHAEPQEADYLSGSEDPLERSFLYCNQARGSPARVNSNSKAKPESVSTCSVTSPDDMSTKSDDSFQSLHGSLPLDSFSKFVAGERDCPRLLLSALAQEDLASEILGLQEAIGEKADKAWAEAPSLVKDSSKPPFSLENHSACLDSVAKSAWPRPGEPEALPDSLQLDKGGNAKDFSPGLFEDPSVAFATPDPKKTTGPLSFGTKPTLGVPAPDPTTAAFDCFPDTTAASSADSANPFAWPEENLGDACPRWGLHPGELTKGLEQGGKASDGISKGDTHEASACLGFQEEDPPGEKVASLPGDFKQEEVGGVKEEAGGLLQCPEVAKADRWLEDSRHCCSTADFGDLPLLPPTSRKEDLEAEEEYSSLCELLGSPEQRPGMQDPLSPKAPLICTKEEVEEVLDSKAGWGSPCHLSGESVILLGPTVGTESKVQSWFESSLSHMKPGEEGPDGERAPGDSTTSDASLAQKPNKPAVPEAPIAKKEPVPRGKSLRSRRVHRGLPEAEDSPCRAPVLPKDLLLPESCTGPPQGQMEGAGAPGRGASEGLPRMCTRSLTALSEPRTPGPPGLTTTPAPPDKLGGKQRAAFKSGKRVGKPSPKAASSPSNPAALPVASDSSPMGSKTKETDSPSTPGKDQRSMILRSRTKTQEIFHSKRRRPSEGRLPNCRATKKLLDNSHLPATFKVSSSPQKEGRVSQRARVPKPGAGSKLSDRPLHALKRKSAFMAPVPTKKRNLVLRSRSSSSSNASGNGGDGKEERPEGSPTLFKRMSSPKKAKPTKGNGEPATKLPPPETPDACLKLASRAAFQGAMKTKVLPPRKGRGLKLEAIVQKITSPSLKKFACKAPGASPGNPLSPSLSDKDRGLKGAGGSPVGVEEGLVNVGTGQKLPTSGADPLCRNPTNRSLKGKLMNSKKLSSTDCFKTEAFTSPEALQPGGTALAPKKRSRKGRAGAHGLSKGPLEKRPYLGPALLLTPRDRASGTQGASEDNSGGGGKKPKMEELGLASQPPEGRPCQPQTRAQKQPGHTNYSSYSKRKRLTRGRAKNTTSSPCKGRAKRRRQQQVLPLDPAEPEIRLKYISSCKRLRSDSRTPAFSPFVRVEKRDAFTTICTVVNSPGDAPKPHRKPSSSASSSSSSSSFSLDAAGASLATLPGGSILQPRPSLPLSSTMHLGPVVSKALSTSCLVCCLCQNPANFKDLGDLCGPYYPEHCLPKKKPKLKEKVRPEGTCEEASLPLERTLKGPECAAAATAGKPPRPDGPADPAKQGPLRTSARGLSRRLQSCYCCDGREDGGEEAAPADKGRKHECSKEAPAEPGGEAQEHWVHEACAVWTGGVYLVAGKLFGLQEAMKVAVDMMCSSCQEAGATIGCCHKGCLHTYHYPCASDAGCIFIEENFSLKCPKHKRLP
UniProt Q9UGU0: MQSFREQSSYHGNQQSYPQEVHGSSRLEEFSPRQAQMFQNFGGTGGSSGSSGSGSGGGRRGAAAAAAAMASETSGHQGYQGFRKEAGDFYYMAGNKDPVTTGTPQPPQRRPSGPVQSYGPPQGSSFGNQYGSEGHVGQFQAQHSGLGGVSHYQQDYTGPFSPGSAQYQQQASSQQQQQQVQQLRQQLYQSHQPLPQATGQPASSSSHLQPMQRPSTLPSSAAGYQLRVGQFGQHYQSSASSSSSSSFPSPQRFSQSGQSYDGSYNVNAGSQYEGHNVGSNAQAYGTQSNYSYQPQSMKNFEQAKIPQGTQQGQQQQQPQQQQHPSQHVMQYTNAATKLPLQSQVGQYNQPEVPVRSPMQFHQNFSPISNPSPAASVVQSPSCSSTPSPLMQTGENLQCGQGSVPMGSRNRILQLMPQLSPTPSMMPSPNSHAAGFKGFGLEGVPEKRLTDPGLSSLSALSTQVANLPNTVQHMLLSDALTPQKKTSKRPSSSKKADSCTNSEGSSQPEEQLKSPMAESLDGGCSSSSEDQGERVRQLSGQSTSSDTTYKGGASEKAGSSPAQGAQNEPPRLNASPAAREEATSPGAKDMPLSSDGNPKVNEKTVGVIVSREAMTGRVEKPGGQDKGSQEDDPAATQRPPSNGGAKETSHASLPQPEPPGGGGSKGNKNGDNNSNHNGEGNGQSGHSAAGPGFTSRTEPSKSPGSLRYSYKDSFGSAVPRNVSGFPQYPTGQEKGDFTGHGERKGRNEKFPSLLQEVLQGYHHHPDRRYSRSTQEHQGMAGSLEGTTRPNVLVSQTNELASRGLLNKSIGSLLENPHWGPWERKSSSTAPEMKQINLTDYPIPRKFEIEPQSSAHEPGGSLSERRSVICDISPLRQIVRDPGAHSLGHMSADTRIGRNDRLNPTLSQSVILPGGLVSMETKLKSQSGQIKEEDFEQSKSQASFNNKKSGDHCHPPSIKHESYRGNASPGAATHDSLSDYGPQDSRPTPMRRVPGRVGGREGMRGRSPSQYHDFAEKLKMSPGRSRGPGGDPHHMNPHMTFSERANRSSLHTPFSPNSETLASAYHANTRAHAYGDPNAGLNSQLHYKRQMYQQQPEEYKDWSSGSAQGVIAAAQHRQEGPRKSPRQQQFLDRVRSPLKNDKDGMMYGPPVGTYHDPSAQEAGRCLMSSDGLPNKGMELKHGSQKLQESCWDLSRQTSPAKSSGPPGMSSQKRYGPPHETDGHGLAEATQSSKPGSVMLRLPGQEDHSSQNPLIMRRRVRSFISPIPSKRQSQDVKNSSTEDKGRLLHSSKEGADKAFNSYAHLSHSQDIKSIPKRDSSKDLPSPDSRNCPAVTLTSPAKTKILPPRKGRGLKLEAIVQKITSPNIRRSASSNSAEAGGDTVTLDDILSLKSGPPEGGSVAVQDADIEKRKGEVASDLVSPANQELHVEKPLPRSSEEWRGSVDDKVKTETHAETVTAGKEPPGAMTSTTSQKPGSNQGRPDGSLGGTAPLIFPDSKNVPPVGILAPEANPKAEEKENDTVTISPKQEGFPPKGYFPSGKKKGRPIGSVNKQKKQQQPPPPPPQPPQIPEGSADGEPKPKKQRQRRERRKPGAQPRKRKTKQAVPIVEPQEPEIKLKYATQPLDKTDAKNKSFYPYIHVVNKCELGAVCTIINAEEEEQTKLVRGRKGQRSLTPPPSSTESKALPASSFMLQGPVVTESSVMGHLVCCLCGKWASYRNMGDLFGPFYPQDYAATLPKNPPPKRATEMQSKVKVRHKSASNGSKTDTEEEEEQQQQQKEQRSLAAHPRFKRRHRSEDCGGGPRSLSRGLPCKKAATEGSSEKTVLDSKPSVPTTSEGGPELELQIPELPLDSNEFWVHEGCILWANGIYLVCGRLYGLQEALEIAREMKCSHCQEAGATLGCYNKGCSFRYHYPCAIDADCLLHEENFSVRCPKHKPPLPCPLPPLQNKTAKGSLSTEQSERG

B1: PHF14 (endogenous, K562) (protein, UniProt O94880 1-948)
chain: MDRSSKRRQVKPLAASLLEALDYDSSDDSDFKVGDASDSEGSGNGSEDASKDSGEGSCSDSEENILEEELNEDIKVKEEQLKNSAEEEVLSSEKQLIKMEKKEEEENGERPRKKKEKEKEKEKEKEKEKEREKEKEKATVSENVAASAAATTPATSPPAVNTSPSVPTTTTATEEQVSEPKKWNLRRNRPLLDFVSMEELNDMDDYDSEDDNDWRPTVVKRKGRSASQKEGSDGDNEDDEDEGSGSDEDENDEGNDEDHSSPASEGGCKKKKSKVLSRNSADDEELTNDSLTLSQSKSNEDSLILEKSQNWSSQKMDHILICCVCLGDNSEDADEIIQCDNCGITVHEGCYGVDGESDSIMSSASENSTEPWFCDACKCGVSPSCELCPNQDGIFKETDAGRWVHIVCALYVPGVAFGDIDKLRPVTLTEMNYSKYGAKECSFCEDPRFARTGVCISCDAGMCRAYFHVTCAQKEGLLSEAAAEEDIADPFFAYCKQHADRLDRKWKRKNYLALQSYCKMSLQEREKQLSPEAQARINARLQQYRAKAELARSTRPQAWVPREKLPRPLTSSASAIRKLMRKAELMGISTDIFPVDNSDTSSSVDGRRKHKQPALTADFVNYYFERNMRMIQIQENMAEQKNIKDKLENEQEKLHVEYNKLCESLEELQNLNGKLRSEGQGIWALLGRITGQKLNIPAILRAPKERKPSKKEGGTQKTSTLPAVLYSCGICKKNHDQHLLLLCDTCKLHYHLGCLDPPLTRMPRKTKNSYWQCSECDQAGSSDMEADMAMETLPDGTKRSRRQIKEPVKFVPQDVPPEPKKIPIRNTRTRGRKRSFVPEEEKHEERVPRERRQRQSVLQKKPKAEDLRTECATCKGTGDNENLVRCDECRLCYHFGCLDPPLKKSPKQTGYGWICQECDSSSSKEDENEAERKNISQELNMEQKNPKK

Biological target: endogenous H2A.Z.1 tagged with 3xFlag-2xStrep (K562, heterozygous clone) (human (endogenous in K562)) (UniProt P0C0S5)
Assay: affinity purification with mass spectrometry; tandem affinity purification of endogenously 3xFlag-2xStrep-tagged H2A.Z isoform from K562 soluble nuclear extracts: anti-FLAG M2 resin, washes at 300 mM and 150 mM KCl, 3xFLAG peptide elution, Strep-Tactin Sepharose, biotin elution; fractions analysed by silver-stained gel, mass spectrometry (two replicates for each bait) and western blot; non-tagged cell line as mock

| binding | Molecule |
| --- | --- |
| binds | RAI1 (from UniProt Q7Z5J4 1-1906) |
| binds | TCF20 (from UniProt Q9UGU0 1-1960) |
| binds | B1 |
